The source of these data is the supplement of paper PMC8975748.

Where a name gives a salt, the structure may show the parent alone. ± gives the standard deviation of the averaged measurements. The list shows a part of the results. Values are raw readings; no control value is given beside them.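 The yeast community starts from one strain carrying four plasmids, each with an amino-acid or uracil synthesis gene and a fluorescent protein. Random plasmid loss creates mixed prototroph and auxotroph subpopulations. Cells were fixed and counted by automated confocal fluorescence imaging, and DMSO-treated wells served as the vehicle reference.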 Bridge positions count the residues as written; N and C are the ends. Square brackets hold non-standard residues; d marks the D form. Peptide text beside a SMILES is read from it. * marks the point of attachment. Ileψ(thiazoline)Cys = CC[C@H](C)[C@H](N)C1=N[C@H](C(=O)*)CS1; dOrn = NCCC[C@@H](N)C(=O)O

This assay relates to Saccharomyces cerevisiae BY4741 SeMeCo community. The assay can be described thus: imaged cell count per well (cells); higher = more cells. The following applies: 10 µM; 24 h; SM minimal medium. The protocol: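 Same SeMeCo high-content imaging drug screen: Selleck FDA-approved drugs at 10 µM, 24 h in SM medium, 384-well plates, 3 replicates.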
Turning to `OC(CCN1CCCCC1)(c1ccccc1)C1CCCCC1` (stereo unspecified) [Trihexyphenidyl hydrochloride], the “imaged cell count per well” value turned out to be 21700 ± 6700.

Regarding `CCC(C)(C)c1ccc(CC(C)CN2C[C@@H](C)O[C@@H](C)C2)cc1` (stereo partly specified) [Amorolfine HCl], the “imaged cell count per well” value is 4330 ± 610.

`CC(C)Cc1ccc(C(C)C(=O)O)cc1` (stereo unspecified) [Ibuprofen]: the “imaged cell count per well” value is 15600 ± 3700.

In the case of `CONC(=O)Nc1ccc(-c2sc3c(c2CN(C)C)c(=O)n(-c2ccc(OC)nn2)c(=O)n3Cc2c(F)cccc2F)cc1` [Relugolix], the “imaged cell count per well” value came to 26700 ± 2700.

Turning to `Cc1ccc(O)c([C@H](CCN(C(C)C)C(C)C)c2ccccc2)c1` [Tolterodine tartrate], the “imaged cell count per well” value came to 22700 ± 5300.

`COc1ccc(C[C@H](N)C(=O)N[C@H]2[C@@H](O)[C@H](n3cnc4c(N(C)C)ncnc43)O[C@@H]2CO)cc1` [Puromycin 2HCl]: the “imaged cell count per well” value turned out to be 19300 ± 8700.

As for `COc1ccc(CN2CCN(C(c3ccc(F)cc3)c3ccc(F)cc3)CC2)c(OC)c1OC` [Lomerizine 2HCl], the “imaged cell count per well” value was found to be 23300 ± 2300.

Consider `Cc1cc(C)nc(NS(=O)(=O)c2ccc(N)cc2)n1` [Sulfamethazine Sodium Salt], for which the “imaged cell count per well” value was 24400 ± 1300.

For the compound `CN(Cc1cnc2nc(N)nc(N)c2n1)c1ccc(C(=O)N[C@@H](CCC(=O)O)C(=O)O)cc1` [Methotrexate disodium], the “imaged cell count per well” value was 3520 ± 460.

Consider `O=C(Nc1cccc(C2=NCCN2)c1)Nc1cccc(C2=NCCN2)c1` [Imidocarb dipropionate], for which the “imaged cell count per well” value turned out to be 25700 ± 520.

As to `CC[C@H](C)[C@H](N)C1=N[C@H](C(=O)N[C@@H](CC(C)C)C(=O)N[C@H](CCC(=O)O)C(=O)N[C@H](C(=O)N[C@H]2CCCCNC(=O)[C@H](CC(N)=O)NC(=O)[C@@H](CC(=O)O)NC(=O)[C@H](Cc3cnc[nH]3)NC(=O)[C@@H](Cc3ccccc3)NC(=O)[C@H]([C@@H](C)CC)NC(=O)[C@@H](CCCN)NC2=O)[C@@H](C)CC)CS1` [Bacitracin] ({Ileψ(thiazoline)Cys}-L[dE]IK[dOrn]I[dF]H[dD]N; lactam 4-C), the “imaged cell count per well” value worked out at 23600 ± 11000.
